In PMC4532469:
Like-named read-outs stand apart in the source and are kept apart here. No constants are given. Whether binding was seen depends on the method and setting.

The chains behind the UniProt entries cited, without tags or fusion partners. Residues count along the entry.
UniProt Q14767, residues 36-1821: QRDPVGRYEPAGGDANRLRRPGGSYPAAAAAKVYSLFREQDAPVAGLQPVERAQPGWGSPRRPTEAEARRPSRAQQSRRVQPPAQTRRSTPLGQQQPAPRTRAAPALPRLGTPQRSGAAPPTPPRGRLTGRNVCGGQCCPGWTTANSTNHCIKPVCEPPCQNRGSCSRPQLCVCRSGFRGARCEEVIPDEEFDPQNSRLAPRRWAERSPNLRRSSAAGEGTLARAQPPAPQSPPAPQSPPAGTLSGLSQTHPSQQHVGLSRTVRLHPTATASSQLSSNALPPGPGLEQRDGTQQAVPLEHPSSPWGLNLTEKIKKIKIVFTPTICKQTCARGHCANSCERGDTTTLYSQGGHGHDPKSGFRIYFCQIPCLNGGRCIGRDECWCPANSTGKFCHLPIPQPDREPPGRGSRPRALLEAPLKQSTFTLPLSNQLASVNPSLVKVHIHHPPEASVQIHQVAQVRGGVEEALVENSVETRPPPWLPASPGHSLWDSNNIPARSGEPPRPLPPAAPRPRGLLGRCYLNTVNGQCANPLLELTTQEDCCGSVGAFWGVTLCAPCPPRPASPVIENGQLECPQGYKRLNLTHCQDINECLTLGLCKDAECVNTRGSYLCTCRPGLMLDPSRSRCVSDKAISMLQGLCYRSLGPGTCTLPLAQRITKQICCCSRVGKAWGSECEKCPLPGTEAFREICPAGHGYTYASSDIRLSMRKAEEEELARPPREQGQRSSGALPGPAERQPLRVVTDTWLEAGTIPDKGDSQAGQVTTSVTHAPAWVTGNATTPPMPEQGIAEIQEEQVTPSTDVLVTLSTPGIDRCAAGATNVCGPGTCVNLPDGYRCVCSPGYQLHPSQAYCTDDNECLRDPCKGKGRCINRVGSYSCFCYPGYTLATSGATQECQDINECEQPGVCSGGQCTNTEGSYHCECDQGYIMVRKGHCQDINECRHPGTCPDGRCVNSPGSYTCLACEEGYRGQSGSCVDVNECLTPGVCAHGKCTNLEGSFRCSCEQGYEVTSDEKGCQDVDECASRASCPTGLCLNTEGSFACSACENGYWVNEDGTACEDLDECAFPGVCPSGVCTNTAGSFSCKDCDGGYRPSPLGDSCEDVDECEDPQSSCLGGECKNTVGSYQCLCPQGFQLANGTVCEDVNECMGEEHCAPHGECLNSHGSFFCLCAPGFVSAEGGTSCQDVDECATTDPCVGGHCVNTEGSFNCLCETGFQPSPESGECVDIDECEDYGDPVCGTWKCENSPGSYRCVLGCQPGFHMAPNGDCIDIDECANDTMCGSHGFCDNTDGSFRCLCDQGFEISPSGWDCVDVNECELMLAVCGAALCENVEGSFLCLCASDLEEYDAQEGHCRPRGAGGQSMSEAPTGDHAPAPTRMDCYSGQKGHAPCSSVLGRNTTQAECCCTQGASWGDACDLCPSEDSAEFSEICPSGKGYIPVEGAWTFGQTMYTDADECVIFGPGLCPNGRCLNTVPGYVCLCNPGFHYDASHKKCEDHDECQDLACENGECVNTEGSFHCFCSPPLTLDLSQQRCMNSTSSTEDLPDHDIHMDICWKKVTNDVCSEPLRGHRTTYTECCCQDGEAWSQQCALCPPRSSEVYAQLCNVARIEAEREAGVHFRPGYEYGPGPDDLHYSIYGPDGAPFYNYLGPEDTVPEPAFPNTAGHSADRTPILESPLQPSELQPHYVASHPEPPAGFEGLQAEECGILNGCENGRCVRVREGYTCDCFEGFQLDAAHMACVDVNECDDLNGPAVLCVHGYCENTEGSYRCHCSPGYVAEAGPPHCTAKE
UniProt P18075, residues 293-431: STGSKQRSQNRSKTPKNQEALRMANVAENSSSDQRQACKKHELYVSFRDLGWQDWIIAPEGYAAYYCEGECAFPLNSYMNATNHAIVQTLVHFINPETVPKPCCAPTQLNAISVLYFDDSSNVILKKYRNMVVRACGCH

Columns and labels:
[1] = target: full-length recombinant human LTBP-2 (latent transforming growth factor-beta-1 binding protein-2) (human) (UniProt Q14767); assay: ELISA; solid phase binding assay: rLTBP-2 (100 ng/well) coated on microtitre wells, BSA-coated wells as control; growth factor at one amount per well, 37°C, 2 h; bound growth factor detected with biotinylated DuoSet antibody and streptavidin-HRP (Fig 2); both purified
[2] = target: full-length recombinant human LTBP-2 (latent transforming growth factor-beta-1 binding protein-2) (human) (UniProt Q14767); assay: as above; remark: listed apart in the source

binding [1] | binding [2] | Molecule
no binding (tested: 4 ng/well) | – | recombinant human BMP-7 (from UniProt P18075 293-431) (ligand)
– | no binding (tested: 4 ng / well) | recombinant human BMP-4 (ligand, UniProt P12644 293-408) SPKHHSQRARKKNKNCRRHSLYVDFSDVGWNDWIVAPPGYQAFYCHGDCPFPLADHLNSTNHAIVQTLVNSVNSSIPKACCVPTELSAISMLYLDEYDKVVLKNYQEMVVEGCGCR
